In the assay the target is Toll-like receptor 4 (TLR4) (mouse (endogenous in ST36 acupoint tissue of C57BL/6J mice)) (UniProt Q9QUK6). The assay can be described thus: co-IP; ST36 acupoint tissue lysate (1 mg protein) incubated with 2 ug mouse monoclonal anti-TLR4 antibody or mouse IgG isotype control, 1 hour at room temperature, then Protein A/G magnetic beads at 4°C overnight; washed three times with lysis buffer; WB for TLR4 and MD2.

Sequences of proteins named here, by UniProt entry; tags and fusion partners are left off. Residues count along the entry.
UniProt Q9QUK6, residues 26-835: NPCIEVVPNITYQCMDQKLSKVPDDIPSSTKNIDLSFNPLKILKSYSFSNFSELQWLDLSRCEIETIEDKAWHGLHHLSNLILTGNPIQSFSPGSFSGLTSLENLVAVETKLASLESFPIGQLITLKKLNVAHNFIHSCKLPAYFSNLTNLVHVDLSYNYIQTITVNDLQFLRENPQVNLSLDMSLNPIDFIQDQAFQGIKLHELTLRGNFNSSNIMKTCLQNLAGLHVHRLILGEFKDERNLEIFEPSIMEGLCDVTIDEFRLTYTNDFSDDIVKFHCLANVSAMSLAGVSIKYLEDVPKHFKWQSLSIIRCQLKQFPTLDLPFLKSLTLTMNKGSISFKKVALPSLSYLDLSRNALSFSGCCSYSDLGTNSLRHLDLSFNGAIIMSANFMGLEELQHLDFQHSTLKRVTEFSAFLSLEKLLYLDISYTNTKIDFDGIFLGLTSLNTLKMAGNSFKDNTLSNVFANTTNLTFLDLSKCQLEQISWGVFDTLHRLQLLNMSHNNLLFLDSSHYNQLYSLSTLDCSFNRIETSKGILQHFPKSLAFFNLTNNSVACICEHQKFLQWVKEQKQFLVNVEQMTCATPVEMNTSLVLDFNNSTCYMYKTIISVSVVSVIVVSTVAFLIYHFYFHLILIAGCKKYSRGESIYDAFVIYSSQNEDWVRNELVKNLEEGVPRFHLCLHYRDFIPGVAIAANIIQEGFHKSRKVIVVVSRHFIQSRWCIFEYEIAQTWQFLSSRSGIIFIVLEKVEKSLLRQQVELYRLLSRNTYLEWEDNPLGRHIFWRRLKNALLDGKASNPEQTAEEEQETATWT

No constants are given. Whether binding was seen depends on the method and setting. In cells and extracts the contact can be indirect. Some binding calls cover weakened binding; strength is not graded here.

B1: Myeloid differentiation protein 2 (MD2) (protein, UniProt Q9JHF9 19-160)
chain: EKQQWFCNSSDAIISYSYCDHLKFPISISSEPCIRLRGTNGFVHVEFIPRGNLKYLYFNLFISVNSIELPKRKEVLCHGHDDDYSFCRALKGETVNTSIPFSFEGILFPKGHYRCVAEAIAGDTEEKLFCLNFTIIHRRDVN
Regarding B1, the binding entry is “binds”.

The record behind these values is publication PMC12893965.
